The results in this text go back to paper PMC4659569.

No constants are given. Whether binding was seen depends on the method and setting. In cells and extracts the contact can be indirect. Some entries that bind do so weakly or less than the wild type. Where a sequence is shown, tags or fusion partners need not be part of it.

In this experiment the target is T1, Spo73-Envy (S. cerevisiae) (UniProt P40031).
T1 sequence: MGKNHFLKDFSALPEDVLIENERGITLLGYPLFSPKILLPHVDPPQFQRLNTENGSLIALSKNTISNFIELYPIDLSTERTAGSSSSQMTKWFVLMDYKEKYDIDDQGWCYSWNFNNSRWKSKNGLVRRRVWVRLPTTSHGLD
In words: co-IP; lysates of sporulated yeast cells in IP buffer (150 mM KCl, 1 mM EDTA, 50 mM HEPES pH 7.6, 1 mM DTT, 0.5% Nonidet P-40); Spo73-Envy precipitated with GFP-Trap A beads, 2 hours at 4°C; Spo71-myc detected with anti-myc blot.

B1: Spo71-myc (protein, UniProt Q03868 1-1245)
chain: MDSIVNVVEDDVKYAQRVTSFSSPQNANVKVFTIPRHSFTAFRLSYVSPTELSACSQVTLLGGIPKQWYADQNNQVWKLLTKISLRKVRKQSDMLRRYGYGTIYKKRVGKIPTALYLRKHFTWSYEDNTSIHNGHRLKEAEMEMKRTRSSPVQKSEYKLSLPRRCRSSSDQNFMRQELLKEKKSELSRNNSLPLIDTAQAVDIHPVLHEEDQENTNKRNKSLLSNLKRKDLGESKSISRKDYSHFDRIPSPSSARSVGETDFNYNREPSEDTLRYPDSIIEVTNRTSPAPNSILSRSGQFVNSNDLSDGFSTSNTINNVGLNANEKIFFNALQSMEKENLMLWKTSQKYGTYLDERRKSADAFQKRERGSCVDIGKLHSSHLPFINILPPWPTELTEEERIIHDRLASKHSHHIRKHVHNARNKTSCKIKDSVGTFLGMTNSLTNKATVKKRTGQILKKEKMLVMVKEAIQNKVPLPNFSENECFDTRVSERWKEYIVIARSTGRFDPPILLQFYRHRHIPEIEDISSIATKYHRNPLDFFLSRNCIVKFYSSLDKTISIQKPDKRLGGFIDESIEKKDELKHYSPIKIFILRCSSIRSSGRWYKFLLESLDRQLFTPAINLKIPLTEISIKINLNEIIFQKLIDLGKQEKDRLKICFLQRGYKIFQHPILRYFTVAILEKLKLAHYDYLIRKWDTENPVLGCALKRYDRLEWIPCDEDSLVTGIFAFCQSHLIQYRPIANRLRETKSLEGKCLKEPTPIEGFLIRLTDKYGSARTNFGKYSISTAYFFTCENLLFSMKAYRANPPLPIDSMIDDTSTEIEKEEIWKQWKKIPEVYEQQPYPLDTNDHIEWMNCQTTQSEYDSRDFYAFHCFHRRIDQILKTDNVIDLTEVKDIYQGTRTDYEADKIKYGVYKEASEIFWHRNYEIDDVSRSVINIETSNGLLLKLLATSATVAEEWVIKLKQMISYWKNKQREDTERLLKIRRSNAGLLMLNGEEETKIGENTLRWIVEHGRADEQTFNANGISLSRPLIQKGPLYQKPHKHSVFSKYYVVLISGFIVLFHCFHRSTTGFAKEVLEYAHYVTIPIDDCYLYSGTTTELDLLQRDRTFDEINYGSHALPRVYGDGWRSVEDESSRCFTLWFGTRRALSSNRLQKKGNEKQYTQDYGRQDNNIDPPSAPEADLNNSNVPSNTDKIHFTKKLGVSGKSMVFMARSRQERDLWVMSIYYELERLRRTASTSNSRNQTM
Turning to B1, the binding entry is recorded as “binds”.
